# From the supplement of paper PMC4604168 (melanoma cell lines)
# The other results are listed elsewhere or left out. Many values rest on one well or one pass, so single values are uncertain.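 The apoptosis fraction was the count of cleaved-PARP antibody-stained nuclei relative to all DNA-stained nuclei, imaged in 1,536-well plates. Screening doses were set so most cells survived, and baseline and induced cleaved-PARP levels vary greatly across cell lines.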
# Legend:
# Test in all cases: cleaved PARP positive nuclei fraction relative to DMSO control; melanoma cells; higher = more apoptosis
# Conditions in all cases: library dose: low library concentration; 72 h
# MZ2-MEL = test system: MZ2-MEL
# MeWo = test system: MeWo
# RPMI7951 = test system: RPMI7951
# RVH-421 = test system: RVH-421
# SkMel28 = test system: SkMel28
# SkMel2 = test system: SkMel2
# SkMel30 = test system: SkMel30
# SkMel5 = test system: SkMel5
# UACC257 = test system: UACC257
# UACC62 = test system: UACC62
# WM115 = test system: WM115
# WM1716 = test system: WM1716
# WM1745 = test system: WM1745
# WM3526 = test system: WM3526
# WM3619 = test system: WM3619
# WM451Lu = test system: WM451Lu
SMILES,cleaved PARP positive nuclei fraction (MZ2-MEL) [%],cleaved PARP positive nuclei fraction (MeWo) [%],cleaved PARP positive nuclei fraction (RPMI7951) [%],cleaved PARP positive nuclei fraction (RVH-421) [%],cleaved PARP positive nuclei fraction (SkMel28) [%],cleaved PARP positive nuclei fraction (SkMel2) [%],cleaved PARP positive nuclei fraction (SkMel30) [%],cleaved PARP positive nuclei fraction (SkMel5) [%],cleaved PARP positive nuclei fraction (UACC257) [%],cleaved PARP positive nuclei fraction (UACC62) [%],cleaved PARP positive nuclei fraction (WM115) [%],cleaved PARP positive nuclei fraction (WM1716) [%],cleaved PARP positive nuclei fraction (WM1745) [%],cleaved PARP positive nuclei fraction (WM3526) [%],cleaved PARP positive nuclei fraction (WM3619) [%],cleaved PARP positive nuclei fraction (WM451Lu) [%]
"Cn1c(Nc2ccc(C(F)(F)F)cc2)nc2cc(Oc3ccnc(-c4ncc(C(F)(F)F)[nH]4)c3)ccc21 + COc1cc(Nc2ncc(F)c(Nc3ccc4c(n3)NC(=O)C(C)(C)O4)n2)cc(OC)c1OC [Tamatinib] (first compound 0.08 µM, partner dose 0.4 µM)",119,89.2,197,186,69.4,182,67.2,69.8,265,70.3,609,41.5,146,77,103,39.5
"Cc1nc(Nc2ncc(C(=O)Nc3c(C)cccc3Cl)s2)cc(N2CCN(CCO)CC2)n1 [dasatanib] + O=C(Nc1cccc(Cl)c1)Nc1ncc(CCNc2ncnc3ccsc23)s1 [SNS314] (first compound 0.004 µM, partner dose 0.0008 µM)",124,54.2,59.7,208,150,67.8,64.9,68.9,78.1,167,123,280,148,62.2,102,103
"C=CCNC1=C2C[C@@H](C)C[C@H](OC)[C@H](O)[C@@H](C)/C=C(\C)[C@H](OC(N)=O)[C@@H](OC)/C=C\C=C(/C)C(=O)NC(=CC1=O)C2=O [Tanespimycin] + O=S(=O)(c1ccccc1)N(CC(F)(F)F)c1ccc(C(O)(C(F)(F)F)C(F)(F)F)cc1 [T0901317] (first compound 0.002 µM, partner dose 1.4 µM)",120,96.5,22.9,95.2,70.2,87.3,74,87.5,72,70.8,138,178,117,83.1,89.5,152
"CC1(C)NC(=O)N(c2ccc([N+](=O)[O-])c(C(F)(F)F)c2)C1=O [nilutamide] + Cn1cncc1[C@@](N)(c1ccc(Cl)cc1)c1ccc2c(c1)c(-c1cccc(Cl)c1)cc(=O)n2C [tipifarnib] (first compound 1 µM, partner dose 0.01 µM)",110,78.1,41.4,191,90.6,63,83.2,215,46,201,200,48.1,221,110,113,74.1
"C#Cc1cccc(Nc2ncnc3cc(OCCOC)c(OCCOC)cc23)c1 [erlotinib] + CC1(C)NC(=O)N(c2ccc([N+](=O)[O-])c(C(F)(F)F)c2)C1=O [nilutamide] (first compound 0.8 µM, partner dose 1 µM)",126,79.8,33.7,96.1,71.5,62.8,70.1,64.3,90.1,102,90.8,76.3,104,59.6,97.2,146
"COCC[n+]1c2c(n(Cc3cnccn3)c1C)C(=O)c1ccccc1C2=O + COc1cc2c(Oc3ccc4[nH]c(C)cc4c3F)ncnc2cc1OCCCN1CCCC1 [cediranib] (first compound 0.0004 µM, partner dose 0.4 µM)",117,493,51.3,46.6,28.5,101,68.4,256,216,173,34.5,91.9,84.1,64,107,192
"Cc1nc(Nc2ncc(C(=O)Nc3c(C)cccc3Cl)s2)cc(N2CCN(CCO)CC2)n1 [dasatanib] + CO[C@@H]1[C@H](N(C)C(=O)c2ccccc2)C[C@H]2O[C@]1(C)n1c3ccccc3c3c4c(c5c6ccccc6n2c5c31)C(=O)NC4 [Midostaurin] (first compound 0.004 µM, partner dose 0.08 µM)",213,140,76.5,83,127,144,69.8,102,85.9,167,229,436,176,51.9,128,121
"Clc1ccc(Nc2nnc(Cc3ccncc3)c3ccccc23)cc1 [vatalanib] + CN(NC(=O)CC(=O)NN(C)C(=S)c1ccccc1)C(=S)c1ccccc1 [STA4783] (first compound 2 µM, partner dose 0.006 µM)",105,211,56.9,213,32.7,50.8,120,579,60.2,139,97.3,216,97.8,113,110,57.3
"Cn1c(Nc2ccc(C(F)(F)F)cc2)nc2cc(Oc3ccnc(-c4ncc(C(F)(F)F)[nH]4)c3)ccc21 + CC(C)(C)c1cnc(CSc2cnc(NC(=O)C3CCNCC3)s2)o1 [SNS-032] (first compound 0.08 µM, partner dose 0.01 µM)",223,107,277,117,237,116,112,67.2,782,797,1540,188,150,253,148,63.9
"OCc1c[nH]c2ccccc12 [Indole-3-carbinol] + CC1(C)NC(=O)N(c2ccc([N+](=O)[O-])c(C(F)(F)F)c2)C1=O [nilutamide] (first compound 0.8 µM, partner dose 1 µM)",106,130,55.4,131,116,136,65,100,144,141,74.9,40.6,117,61,102,114
"Nc1cccc2c1CN(C1CCC(=O)NC1=O)C2=O (stereo not drawn) [lenalidomide] + Cc1cc(N2CCOCC2)cc2[nH]c(-c3c(NC[C@@H](O)c4cccc(Cl)c4)cc[nH]c3=O)nc12 [BMS536924] (first compound 1 µM, partner dose 0.2 µM)",82.4,76.3,136,84.4,130,113,67.9,112,48.1,182,172,64.2,119,169,102,56.4
"OCc1c[nH]c2ccccc12 [Indole-3-carbinol] + O=C(Nc1cccc(Cl)c1)Nc1ncc(CCNc2ncnc3ccsc23)s1 [SNS314] (first compound 0.8 µM, partner dose 0.0008 µM)",31,190,118,218,42.3,109,48.3,61.9,65.1,185,80.8,39.6,71.4,49.5,67.2,81.1
"C=CCn1c(=O)c2cnc(Nc3ccc(N4CCN(C)CC4)cc3)nc2n1-c1cccc(C(C)(C)O)n1 + CC(C)(C)c1cnc(CSc2cnc(NC(=O)C3CCNCC3)s2)o1 [SNS-032] (first compound 0.02 µM, partner dose 0.01 µM)",224,22.9,73.1,53.2,41.7,121,75.8,90.9,303,158,112,117,119,89.4,124,25.6

# Only cleaved PARP positive nuclei fraction (SkMel2) [%] and cleaved PARP positive nuclei fraction (WM3619) [%], for some of the entries so far:
SMILES | cleaved PARP positive nuclei fraction (SkMel2) [%] | cleaved PARP positive nuclei fraction (WM3619) [%]
OCc1c[nH]c2ccccc12 [Indole-3-carbinol] + CC1(C)NC(=O)N(c2ccc([N+](=O)[O-])c(C(F)(F)F)c2)C1=O [nilutamide] (first compound 0.8 µM, partner dose 1 µM) | 136 | 102
Nc1cccc2c1CN(C1CCC(=O)NC1=O)C2=O (stereo not drawn) [lenalidomide] + Cc1cc(N2CCOCC2)cc2[nH]c(-c3c(NC[C@@H](O)c4cccc(Cl)c4)cc[nH]c3=O)nc12 [BMS536924] (first compound 1 µM, partner dose 0.2 µM) | 113 | 102
